The source of these data is paper PMC10742126.

By UniProt entry, the sequences of proteins in these tests, tags left out.
UniProt P40763: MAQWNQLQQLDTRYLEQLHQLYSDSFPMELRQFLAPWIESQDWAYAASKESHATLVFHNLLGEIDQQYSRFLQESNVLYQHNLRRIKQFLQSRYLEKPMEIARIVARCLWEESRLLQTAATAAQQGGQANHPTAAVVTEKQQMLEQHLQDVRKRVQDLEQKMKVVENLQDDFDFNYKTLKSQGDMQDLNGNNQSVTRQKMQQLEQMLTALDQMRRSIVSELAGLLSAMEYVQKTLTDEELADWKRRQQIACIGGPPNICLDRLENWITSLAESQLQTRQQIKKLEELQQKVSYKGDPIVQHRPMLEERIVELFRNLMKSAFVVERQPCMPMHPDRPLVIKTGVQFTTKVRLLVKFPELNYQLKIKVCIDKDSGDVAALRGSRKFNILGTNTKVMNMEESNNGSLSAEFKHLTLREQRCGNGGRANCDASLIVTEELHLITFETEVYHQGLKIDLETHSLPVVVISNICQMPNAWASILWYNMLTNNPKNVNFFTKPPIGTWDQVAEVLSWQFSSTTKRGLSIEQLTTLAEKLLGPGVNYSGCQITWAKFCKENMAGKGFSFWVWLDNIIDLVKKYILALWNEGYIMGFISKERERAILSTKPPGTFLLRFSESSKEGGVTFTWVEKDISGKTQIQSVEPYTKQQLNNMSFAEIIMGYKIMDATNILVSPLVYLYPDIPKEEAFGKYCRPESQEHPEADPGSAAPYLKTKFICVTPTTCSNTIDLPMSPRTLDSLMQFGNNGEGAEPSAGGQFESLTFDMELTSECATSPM
UniProt P84022: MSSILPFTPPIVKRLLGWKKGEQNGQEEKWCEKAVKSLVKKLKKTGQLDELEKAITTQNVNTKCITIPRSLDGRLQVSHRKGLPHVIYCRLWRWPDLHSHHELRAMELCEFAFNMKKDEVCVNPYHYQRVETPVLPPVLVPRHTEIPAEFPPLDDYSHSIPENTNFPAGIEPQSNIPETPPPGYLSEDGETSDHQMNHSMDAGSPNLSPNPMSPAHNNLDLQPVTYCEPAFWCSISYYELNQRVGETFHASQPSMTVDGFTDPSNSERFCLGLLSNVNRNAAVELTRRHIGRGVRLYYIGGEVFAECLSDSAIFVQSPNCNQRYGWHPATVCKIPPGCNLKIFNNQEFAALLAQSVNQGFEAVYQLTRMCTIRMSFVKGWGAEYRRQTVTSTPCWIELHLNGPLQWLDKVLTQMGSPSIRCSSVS

These are yes or no findings as the source states them, for the method shown. In cells and extracts the contact can be indirect. Some entries that bind do so weakly or less than the wild type.

In this assay the target is STAT3 (human (endogenous in HNSCC cells)) (UniProt P40763). The assay is described as follows: co-IP; immunoprecipitation with anti-STAT3, blot for SMAD3; HNSCC cells after SOX2-OT overexpression.

For SMAD3 (from UniProt P84022 1-425), the binding entry is recorded as “binds”.
